Source: paper PMC8001349
Results are given in words; binding and its absence hold for the method and conditions named. In cells and extracts the contact can be indirect. Binding calls can cover weak binding; strength is not graded here. Where a sequence is shown, tags or fusion partners need not be part of it.

Target: T1, OsABI5 fused to cEYFP (rice (Oryza sativa L.)) (UniProt Q8RZ35)
T1 sequence: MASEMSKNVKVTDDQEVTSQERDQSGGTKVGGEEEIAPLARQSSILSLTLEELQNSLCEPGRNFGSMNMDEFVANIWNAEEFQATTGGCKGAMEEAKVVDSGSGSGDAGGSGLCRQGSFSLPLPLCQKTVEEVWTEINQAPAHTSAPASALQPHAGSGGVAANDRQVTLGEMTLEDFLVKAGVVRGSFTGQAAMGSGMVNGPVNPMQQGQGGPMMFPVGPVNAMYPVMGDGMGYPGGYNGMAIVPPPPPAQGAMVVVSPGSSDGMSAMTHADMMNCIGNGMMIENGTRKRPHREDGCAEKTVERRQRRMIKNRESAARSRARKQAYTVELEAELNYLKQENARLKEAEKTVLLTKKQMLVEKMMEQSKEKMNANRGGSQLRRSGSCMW
Assay: split reporter; BiFC with EYFP halves, transient co-expression in rice protoplasts, 12-16 h in W5 solution in darkness, confocal microscopy, NLS-mCherry as nucleus marker

For “Kelch repeat domain of OsKEAP1 (OsKelch) fused to nEYFP (from UniProt Q5VQH0) (domain or fragment)”, the binding was “binds”.
